Hit rate of the full screen: of about 310,000 compounds, about 17,000 (5.5%) were called active. The inconclusive results got no clear call from the source; some entries with a clear call stand among them for comparison. The call rests on the fitted dose curve; in most records, active means well fitted inhibition curve with a large enough effect; inconclusive means small, poorly fitted or top-dose-only effect, or effect the other way; inactive means no such curve, though single readings can be large or run the other way. Potencies beside an inconclusive call are fits to weak or partial responses and may not hold up.
Each compound was assayed against Nuclear receptor ROR-gamma (Mus musculus) (UniProt P51450) (assay: qHTS for inhibitors of ROR gamma transcriptional activity). Settings: Drosophila S2 Gal4-RORgamma UAS-luciferase reporter, 20 h; activity change, negative = inhibition: at 53.6 µM (top of the series).
Procedure, shortened: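 Stably transfected Drosophila Schneider cells are the test system, with ROR gamma fused to Gal4 and luciferase under UAS control; luminescence is read after 20 hr of 700 uM copper sulfate induction at ambient temperature.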
Further: nearly all actives have a fitted effect of over 60% in size.
On the % scale 0 is the no-effect control and ±100 the full control effect; potency means the concentration at half of the fitted maximal effect.

The chains behind the UniProt entries cited, without tags or fusion partners. Where a name states a change or a piece, a line headed by the entry shows the natural chain unless it says otherwise.
UniProt P51450: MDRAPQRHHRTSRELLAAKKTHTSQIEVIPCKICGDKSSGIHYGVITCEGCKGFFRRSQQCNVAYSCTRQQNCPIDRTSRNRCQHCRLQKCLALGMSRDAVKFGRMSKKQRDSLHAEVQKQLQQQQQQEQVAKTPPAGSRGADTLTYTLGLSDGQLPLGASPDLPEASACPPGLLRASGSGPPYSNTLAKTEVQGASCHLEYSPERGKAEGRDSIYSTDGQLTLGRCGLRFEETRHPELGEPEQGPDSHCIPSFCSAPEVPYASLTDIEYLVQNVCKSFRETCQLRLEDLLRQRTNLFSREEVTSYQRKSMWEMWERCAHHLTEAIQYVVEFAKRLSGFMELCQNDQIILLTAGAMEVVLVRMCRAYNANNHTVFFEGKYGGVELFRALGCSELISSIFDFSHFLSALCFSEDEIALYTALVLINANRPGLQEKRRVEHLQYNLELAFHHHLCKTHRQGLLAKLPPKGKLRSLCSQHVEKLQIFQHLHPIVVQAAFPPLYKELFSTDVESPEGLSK

SMILES | activity change, negative = inhibition | Potency
COc1ccc(-c2nc3c(c(=O)[nH]c(=O)n3Cc3ccccc3)n2C)cc1 | inactive: -3.86% | –
CN(Cc1cnn(C)c1)C(=O)c1sc2cccc(Cl)c2c1Cl | – | inconclusive: 35.5 µM [inhibitor, single point]
Cc1cc([N+](=O)[O-])ccc1NCc1ccc2c(c1)OCCO2 | – | inconclusive: 22.4 µM [activator, single point]
O=C(c1ccc(Cl)c([N+](=O)[O-])c1)N(Cc1cccc(Cl)c1)C1CCS(=O)(=O)C1 (stereo not drawn) | – | inconclusive: 12.6 µM [activator, partial curve]
CC(NC(=O)Nc1ccc(Br)cc1)C(C)(C)C (stereo not drawn) | – | inconclusive: 12.6 µM [activator, single point]
COc1ccc(C(CCN)Cc2ccccc2)cc1 (stereo not drawn) | inactive: -4.67% | –
CCc1cc(=O)oc2c(C)c(O[C@@H]3O[C@H](CO)[C@@H](O)[C@H](O)[C@H]3O)ccc12 | inactive: 8.3% | –
CCSc1nnc(-c2ccc(Cl)cc2Cl)o1 | – | inconclusive: 6.31 µM [inhibitor, single point]
O=C(N/N=C/c1ccccn1)c1cc(-c2ccccc2)nc2ccccc12 | – | active: 0.501 µM
O=C(NCc1nc2ccccc2[nH]1)C1=C[C@@H](C2CCCCC2)C[C@@H](OCCCCO)O1 | inactive: -7.98% | –
CSc1nnc(-c2cc[n+](C)cc2)n1CCO | inactive: -7.61% | –
C/C(=N\NC(=S)NC1CCCCC1)c1ccc(C#N)cc1 | – | active: 2.24 µM
CC(=O)N1CCOc2ccc(S(=O)(=O)N3CCC(C(=O)Nc4ccc(C)cc4C)CC3)cc21 | inactive: 15.3% | –
C[C@@H]1CCC(=O)N(CC[C@H](Oc2ccccc2)c2ccccc2)CC1 | inactive: 28.2% | –
Cc1ccccc1OCC(=O)NNC(=O)CSc1nc(N)cc(N)n1 | inactive: 16.5% | –
CC(=O)N1CCN(S(=O)(=O)c2cccc(C(=O)Nc3nc4ccccc4[nH]3)c2)CC1 | – | inconclusive: 35.5 µM [inhibitor, single point]
O=C1C(Cl)=C(NCCN2CCCCC2)C(=O)c2ccccc21 | – | active: 10 µM
Cc1[nH][nH]c(=O)c1N=Nc1ccccc1C#N | – | inconclusive: 12.6 µM [inhibitor, single point]
N#C/C(=C\N1CCN(Cc2ccc3c(c2)OCO3)CC1)c1nc2ccccc2s1 | – | inconclusive: 12.6 µM [activator, partial curve]
O=C1/C(=C/c2cccnc2)SC(=S)N1C1CCS(=O)(=O)C1 (stereo not drawn) | – | active: 11.2 µM
CCOc1ccc2c(c1)c(N=O)c(O)n2C | inactive: -19.5% | –
Cc1cc(NCCN2CCOCC2)n2nc(C)c(-c3ccccc3)c2n1 | – | active: 8.91 µM
COC(=O)CNC(c1ccccc1)c1cc(Br)ccc1NC(=O)CCN1CCOCC1 (stereo not drawn) | – | inconclusive: 35.5 µM [inhibitor, single point]
CC(=O)c1ccc(S(=O)(=O)N2CCN(c3ccccc3F)CC2)cc1 | – | inconclusive: 15.8 µM [activator, single point]
Cc1ccc(Nc2nc(COC(=O)C3CC3)cs2)cc1 | inactive: -16.2% | –
CCOC(=O)c1c(S(=O)(=O)NCC(=O)N2CCN(c3ccccc3OC)CC2)c(C)n(C)c1C | inactive: 6.3% | –

SMILES | activity change, negative = inhibition | Potency
O=[N+]([O-])c1cccc(CSc2nnc(Cc3ccccc3)n2-c2ccc(F)cc2)c1 | – | inconclusive: 35.5 µM [activator, single point]
CN(CC(=O)Nc1nc2ccc(F)cc2s1)S(=O)(=O)c1ccc(Cl)cc1 | – | inconclusive: 22.4 µM [activator, single point]
S=c1nc2ccccc2c2nc(-c3ccccc3)[nH]n12 | – | active: 0.0891 µM
COc1ccc(NC(=O)c2cn(-c3ccccc3)nc2SC)cc1 | – | inconclusive: 8.91 µM [activator, partial curve, poor fit]
COc1cc(N)ccc1NC(=O)c1cccs1 | – | inconclusive: 35.5 µM [inhibitor, single point]
O=c1[nH]c(-c2ccccn2)nc2sc(-c3ccccc3)cc12 | – | active: 0.316 µM
CCN(CC)CCNC(=O)c1ccc2c(c1NCCO)C(=O)c1ccccc1C2=O | – | inconclusive: 2 µM [inhibitor, partial curve]
Cc1ccc(-c2csc(NC(=S)NC(=O)c3cc4ccccc4o3)n2)cc1 | inactive: 2.42% | –
O=C(NCCn1cc(SCc2ccc(F)cc2)c2ccccc21)c1ccccc1F | – | inconclusive: 35.5 µM [activator, single point]
C/C(=N\NC(=S)NC1CCCCC1)c1ccc(O)cc1 | – | active: 4.47 µM
Oc1oc(-c2ccccc2)nc1C=NCc1ccccc1 | – | inconclusive: 11.2 µM [activator, partial curve]
CCOC(=O)N1CCN(c2c(N3CCN(c4ccc(F)cc4)CC3)c(=O)c2=O)CC1 | inactive: 0.605% | –
Cn1c(=O)[nH]c(=O)c2c1nc(N1CCCCC1)n2CCCSc1nnnn1-c1ccccc1 | – | inconclusive: 7.94 µM [activator, partial curve]
CC(=O)Nc1sc(N/N=C\c2ccco2)nc1-c1cccs1 | inactive: -118% | –
CCN(CC)S(=O)(=O)c1cccc(-c2nnc(SCC#N)n2Cc2ccccc2)c1 | inactive: 43.5% | –
CCOc1ccc(/C=C(\C(=O)O)c2ccc(S(=O)(=O)N3CCOCC3)s2)cc1OC | – | inconclusive: 35.5 µM [activator, single point]
O=C(CC(Sc1ccc(Br)cc1)C(=O)O)c1ccc(Br)cc1 (stereo not drawn) | – | active: 14.1 µM
COc1ccc(CC(NC(C)=O)C(=O)NC2CCN(C(=O)c3ccc([N+](=O)[O-])cc3)CC2)cc1OC (stereo not drawn) | – | inconclusive: 8.91 µM [activator, partial curve]
O=C(Nc1ccncc1)c1ccc2ccccc2c1 | inactive: 22% | –
Cc1ccc(S(=O)(=O)NC(N)=NCCc2ccccc2)cc1C | – | inconclusive: 12.6 µM [activator, single point]
Cc1cccc(Oc2c([N+](=O)[O-])c(=O)n(C)c3ccccc23)c1 | – | inconclusive: 11.2 µM [inhibitor, single point]
Cc1ccccc1CSCCNC(=S)Nc1ccccc1 | – | active: 2.24 µM
COC(=O)c1sc2nc[nH]c(=O)c2c1C | – | inconclusive: 35.5 µM [activator, single point]
CC(C)(C)C1CCC(=NNC(=S)Nc2cccnc2)CC1 (stereo not drawn) | – | inconclusive: 17.8 µM [inhibitor, single point]
CN(C)Cc1c(C(=O)N/N=C/c2cccc3ccccc23)nnn1-c1nonc1N | inactive: 5.94% | –
Cc1ccc(C(=O)CN2CCC(NC(=O)C3CCCCC3)CC2)cc1 | inactive: 1.84% | –

As a working copy, some entries already given:
SMILES | activity change, negative = inhibition | Potency
S=c1nc2ccccc2c2nc(-c3ccccc3)[nH]n12 | – | active: 0.0891 µM
COc1ccc(NC(=O)c2cn(-c3ccccc3)nc2SC)cc1 | – | inconclusive: 8.91 µM [activator, partial curve, poor fit]
COc1cc(N)ccc1NC(=O)c1cccs1 | – | inconclusive: 35.5 µM [inhibitor, single point]
O=c1[nH]c(-c2ccccn2)nc2sc(-c3ccccc3)cc12 | – | active: 0.316 µM
CCN(CC)CCNC(=O)c1ccc2c(c1NCCO)C(=O)c1ccccc1C2=O | – | inconclusive: 2 µM [inhibitor, partial curve]
Cc1ccc(-c2csc(NC(=S)NC(=O)c3cc4ccccc4o3)n2)cc1 | inactive: 2.42% | –
O=C(NCCn1cc(SCc2ccc(F)cc2)c2ccccc21)c1ccccc1F | – | inconclusive: 35.5 µM [activator, single point]
C/C(=N\NC(=S)NC1CCCCC1)c1ccc(O)cc1 | – | active: 4.47 µM
Oc1oc(-c2ccccc2)nc1C=NCc1ccccc1 | – | inconclusive: 11.2 µM [activator, partial curve]
CCOC(=O)N1CCN(c2c(N3CCN(c4ccc(F)cc4)CC3)c(=O)c2=O)CC1 | inactive: 0.605% | –
Cn1c(=O)[nH]c(=O)c2c1nc(N1CCCCC1)n2CCCSc1nnnn1-c1ccccc1 | – | inconclusive: 7.94 µM [activator, partial curve]
CC(=O)Nc1sc(N/N=C\c2ccco2)nc1-c1cccs1 | inactive: -118% | –
CCN(CC)S(=O)(=O)c1cccc(-c2nnc(SCC#N)n2Cc2ccccc2)c1 | inactive: 43.5% | –
CCOc1ccc(/C=C(\C(=O)O)c2ccc(S(=O)(=O)N3CCOCC3)s2)cc1OC | – | inconclusive: 35.5 µM [activator, single point]
O=C(CC(Sc1ccc(Br)cc1)C(=O)O)c1ccc(Br)cc1 (stereo not drawn) | – | active: 14.1 µM
COc1ccc(CC(NC(C)=O)C(=O)NC2CCN(C(=O)c3ccc([N+](=O)[O-])cc3)CC2)cc1OC (stereo not drawn) | – | inconclusive: 8.91 µM [activator, partial curve]
O=C(Nc1ccncc1)c1ccc2ccccc2c1 | inactive: 22% | –
Cc1ccc(S(=O)(=O)NC(N)=NCCc2ccccc2)cc1C | – | inconclusive: 12.6 µM [activator, single point]
Cc1cccc(Oc2c([N+](=O)[O-])c(=O)n(C)c3ccccc23)c1 | – | inconclusive: 11.2 µM [inhibitor, single point]
Cc1ccccc1CSCCNC(=S)Nc1ccccc1 | – | active: 2.24 µM
COC(=O)c1sc2nc[nH]c(=O)c2c1C | – | inconclusive: 35.5 µM [activator, single point]
CC(C)(C)C1CCC(=NNC(=S)Nc2cccnc2)CC1 (stereo not drawn) | – | inconclusive: 17.8 µM [inhibitor, single point]
CN(C)Cc1c(C(=O)N/N=C/c2cccc3ccccc23)nnn1-c1nonc1N | inactive: 5.94% | –

(next part)

SMILES | activity change, negative = inhibition | Potency
CN(c1ccccc1)S(=O)(=O)c1ccc(NC(=O)COc2ccccc2)cc1 | – | inconclusive: 11.2 µM [activator, partial curve, poor fit]
Cc1onc(-c2ccccc2)c1C(=O)Nc1sc2c(c1C#N)CCC(C)C2 (stereo not drawn) | inactive: 20.3% | –
O=C(N/N=C/c1cccn1-c1cccc(C(=O)O)c1)Nc1ccccc1 | – | inconclusive: 31.6 µM [activator, single point]
Cc1ccc(C(=O)CC2(O)C(=O)N(C)c3ccccc32)s1 (stereo not drawn) | inactive: 32% | –
Cc1ccc(NC(=S)NNc2ncc(C(F)(F)F)cc2Cl)c(C)c1 | – | active: 10 µM
CCC(C(=O)NCCC(C)C)n1ccc2cc(S(=O)(=O)N3CCCCC3)ccc21 (stereo not drawn) | – | inconclusive: 14.1 µM [activator, single point]
O=C1CSC(=S)N1c1cccc(O)c1 | – | active: 12.6 µM
N#CCCN=C(NS(=O)(=O)c1ccccc1)c1ccccc1 | inactive: -14% | –
CCOCCN1CCN(c2c(CC)c(C)nc3cc(-c4cc(OC)cc(OC)c4)nn23)CC1 | – | inconclusive: 0.112 µM [activator, full curve, poor fit]
O=C(c1cc(-c2ccc(F)cc2)on1)N1CCCc2ccccc21 | – | inconclusive: 7.08 µM [inhibitor, partial curve]
Cc1cccc(NC(=S)N/N=C2/CCCCc3ccccc32)c1 | – | active: 2.82 µM
CC1(C)CNC(=O)c2sc(N3CCCCC3)nc2C1 | inactive: 35.6% | –
O=C(Nc1cccc(F)c1)N1CCCC2(CCN(C(=O)c3cnccn3)CC2)C1 | inactive: -1.06% | –
CCOC(=O)C(C)Sc1ncnc2c1c(-c1ccccc1)cn2-c1ccc(OC)cc1 (stereo not drawn) | – | inconclusive: 10 µM [activator, partial curve]
CC1=NN(c2ccc(C)c(C)c2)C(=O)C1C(c1cccc(O)c1)C1C(=O)N(c2ccc(C)c(C)c2)N=C1C (stereo not drawn) | – | inconclusive: 12.6 µM [activator, partial curve]
O=C(O)COCC(=O)Nc1ccc(OCCc2ccccc2)cc1 | inactive: -33.9% | –
CCOC(=O)C1CCN(CC(O)COc2ccc(C(C)(C)C)cc2)CC1 (stereo not drawn) | inactive: -16% | –
CC(C)(C)NC(=O)C(c1ccccc1)N(Cc1cccs1)C(=O)c1csnn1 (stereo not drawn) | – | inconclusive: 25.1 µM [activator, single point]
O=C(C1=C[C@@H](c2ccc3c(c2)OCO3)C[C@@H](OCc2ccc(CO)cc2)O1)N1CCOCC1 | inactive: -0.154% | –
O=C(O)C(Cc1ccc(Cl)cc1)Sc1nc2ccccc2[nH]1 (stereo not drawn) | inactive: -1.55% | –
Cc1onc(-c2c(Cl)cccc2Cl)c1C(=O)Nc1nccs1 | – | active: 10 µM
CCOc1ccc(C2c3c(oc4cc(C)c(C)cc4c3=O)C(=O)N2CCCN2CCOCC2)cc1 (stereo not drawn) | – | inconclusive: 35.5 µM [inhibitor, single point]
COc1ccc(CN2CCN(Cc3ccccc3C(F)(F)F)CC2)c(OC)c1 | inactive: -4.12% | –
CCn1c(SCC(=O)Nc2cccc(F)c2)nnc1-c1cc2cc(Br)ccc2o1 | – | inconclusive: 35.5 µM [inhibitor, single point]
Cc1ccc(-c2nc(NCC3CCCO3)sc2C)cc1 (stereo not drawn) | – | active: 11.2 µM
Cc1onc(-c2ccccc2Cl)c1C(=O)Nc1nnc(C(C)C)s1 | – | inconclusive: 15.8 µM [inhibitor, single point]
